The record followed here is paper PMC8129138.

The chains behind the UniProt entries cited, without tags or fusion partners.
UniProt Q9H1P3: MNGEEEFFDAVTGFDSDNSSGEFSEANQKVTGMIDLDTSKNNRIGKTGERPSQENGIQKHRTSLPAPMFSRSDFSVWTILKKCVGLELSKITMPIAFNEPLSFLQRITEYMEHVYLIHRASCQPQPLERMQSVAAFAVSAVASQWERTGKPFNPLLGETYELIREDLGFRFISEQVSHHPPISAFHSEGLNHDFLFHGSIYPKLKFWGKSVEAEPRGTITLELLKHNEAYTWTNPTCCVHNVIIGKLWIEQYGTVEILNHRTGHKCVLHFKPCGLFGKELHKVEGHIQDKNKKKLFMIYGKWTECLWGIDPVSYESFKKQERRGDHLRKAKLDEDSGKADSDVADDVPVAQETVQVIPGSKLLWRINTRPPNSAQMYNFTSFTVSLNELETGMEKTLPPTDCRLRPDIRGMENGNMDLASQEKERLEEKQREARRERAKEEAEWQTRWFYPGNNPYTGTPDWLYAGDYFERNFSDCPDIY
UniProt Q9Y5T5: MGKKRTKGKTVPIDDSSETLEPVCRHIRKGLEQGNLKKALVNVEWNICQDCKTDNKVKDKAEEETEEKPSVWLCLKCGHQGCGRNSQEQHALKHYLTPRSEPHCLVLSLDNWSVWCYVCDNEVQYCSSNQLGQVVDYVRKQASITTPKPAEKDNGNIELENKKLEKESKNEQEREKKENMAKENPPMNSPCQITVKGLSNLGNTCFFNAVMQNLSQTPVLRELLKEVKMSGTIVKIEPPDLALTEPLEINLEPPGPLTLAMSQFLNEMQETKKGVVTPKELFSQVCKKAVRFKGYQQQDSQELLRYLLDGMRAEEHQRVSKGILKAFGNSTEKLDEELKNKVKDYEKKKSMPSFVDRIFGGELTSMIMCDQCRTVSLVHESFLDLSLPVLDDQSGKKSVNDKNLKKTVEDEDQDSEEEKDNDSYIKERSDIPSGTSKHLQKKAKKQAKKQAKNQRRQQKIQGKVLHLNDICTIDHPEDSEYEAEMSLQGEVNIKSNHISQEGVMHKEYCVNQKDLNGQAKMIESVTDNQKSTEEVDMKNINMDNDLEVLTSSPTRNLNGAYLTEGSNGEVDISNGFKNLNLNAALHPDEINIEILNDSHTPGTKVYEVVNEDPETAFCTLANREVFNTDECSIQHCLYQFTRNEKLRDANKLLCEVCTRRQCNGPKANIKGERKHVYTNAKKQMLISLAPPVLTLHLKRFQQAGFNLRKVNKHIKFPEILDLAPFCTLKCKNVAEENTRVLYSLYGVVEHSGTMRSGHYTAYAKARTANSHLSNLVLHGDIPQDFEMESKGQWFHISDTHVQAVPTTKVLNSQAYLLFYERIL
UniProt P35222: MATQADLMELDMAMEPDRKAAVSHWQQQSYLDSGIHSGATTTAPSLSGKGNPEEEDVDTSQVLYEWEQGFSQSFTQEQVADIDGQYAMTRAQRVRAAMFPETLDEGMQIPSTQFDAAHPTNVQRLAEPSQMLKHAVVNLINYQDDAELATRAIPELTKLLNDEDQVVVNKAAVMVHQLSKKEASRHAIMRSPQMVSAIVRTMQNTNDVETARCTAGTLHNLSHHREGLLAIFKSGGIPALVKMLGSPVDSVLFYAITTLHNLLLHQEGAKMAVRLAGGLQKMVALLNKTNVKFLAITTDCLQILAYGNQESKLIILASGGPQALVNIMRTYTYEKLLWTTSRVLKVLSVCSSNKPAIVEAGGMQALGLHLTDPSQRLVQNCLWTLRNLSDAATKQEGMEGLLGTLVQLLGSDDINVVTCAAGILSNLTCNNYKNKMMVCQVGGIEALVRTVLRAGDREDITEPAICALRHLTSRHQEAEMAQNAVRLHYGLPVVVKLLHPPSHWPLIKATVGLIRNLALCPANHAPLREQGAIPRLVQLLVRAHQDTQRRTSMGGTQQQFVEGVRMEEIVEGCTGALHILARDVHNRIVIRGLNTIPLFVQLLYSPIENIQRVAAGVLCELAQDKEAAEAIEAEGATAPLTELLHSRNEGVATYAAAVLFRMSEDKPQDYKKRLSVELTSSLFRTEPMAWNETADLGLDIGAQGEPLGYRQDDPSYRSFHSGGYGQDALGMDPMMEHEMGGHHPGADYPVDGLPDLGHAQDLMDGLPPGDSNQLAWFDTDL

Read-outs that look alike come from different tables or passages of the source. These are yes or no findings as the source states them, for the method shown. In cells and extracts the contact can be indirect. A yes stands for co-enrichment or nearness to the bait. Other partners may have been found.

For assay [1], the target named is FLAG-tagged OSBPL2 (oxysterol-binding protein-like 2) (UniProt Q9H1P3). In words: affinity purification with mass spectrometry; lysate of HEK293T cells transfected with FLAG-tagged OSBPL2, immunoprecipitated with anti-FLAG-tag M2 antibody (normal IgG as negative control); protein bands analysed by LC-MS/MS.
For assay [2] the target is unchanged. The description is as above. This is another data set of the same source.

With USP16 (from UniProt Q9Y5T5 1-823), in assay [1], the binding entry is on record as “binds”.

For the molecule “β-catenin found in the OSBPL2 interactome of HEK293T cells (from UniProt P35222 1-781)”, the binding entry in assay [1] is listed as “binds”.

B1: USP39 (protein, UniProt Q53GS9 1-565)
chain: MSGRSKRESRGSTRGKRESESRGSSGRVKRERDREREPEAASSRGSPVRVKREFEPASAREAPASVVPFVRVKREREVDEDSEPEREVRAKNGRVDSEDRRSRHCPYLDTINRSVLDFDFEKLCSISLSHINAYACLVCGKYFQGRGLKSHAYIHSVQFSHHVFLNLHTLKFYCLPDNYEIIDSSLEDITYVLKPTFTKQQIANLDKQAKLSRAYDGTTYLPGIVGLNNIKANDYANAVLQALSNVPPLRNYFLEEDNYKNIKRPPGDIMFLLVQRFGELMRKLWNPRNFKAHVSPHEMLQAVVLCSKKTFQITKQGDGVDFLSWFLNALHSALGGTKKKKKTIVTDVFQGSMRIFTKKLPHPDLPAEEKEQLLHNDEYQETMVESTFMYLTLDLPTAPLYKDEKEQLIIPQVPLFNILAKFNGITEKEYKTYKENFLKRFQLTKLPPYLIFCIKRFTKNNFFVEKNPTIVNFPITNVDLREYLSEEVQAVHKNTTYDLIANIVHDGKPSEGSYRIHVLHHGTGKWYELQDLQVTDILPQMITLSEAYIQIWKRRDNDETNQQGA
For B1, in assay [2], the binding result is “binds”.
